PubChem BioAssay AID686937, Drosophila RNAi Screening Center – 2013

- Screen: 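Genes whose loss weakens secretory pathway function in fly cells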 (primary screen)
- Cells: Drosophila S2 cells expressing secreted horseradish peroxidase
- Knock-down reagent: long dsRNA against Drosophila genes
- Timing: about 5.5 days (5 days dsRNA, then 12 h reporter induction)
- Challenge: reporter expression induced after 5 days of dsRNA, read 12 h later; inducer not stated
- Read-out: 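Chemiluminescent measurement of peroxidase in the medium 12 h after reporter induction, following 5 days of dsRNA, given as a z-score per plate; higher means more secretion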
- Scale: z-score: higher = more reporter secreted into medium
The screen tested about 23,000 reagents; this is an unselected part of those that have a named target and a result. 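Reduced-secretion tags in replicate 1 do not always agree with the z-scores; no criterion for assigning the tags was given.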 Not given: the amount of reagent.

| target gene | dsRNA | z-score, replicate 1 | z-score, replicate 2 | z-score, replicate 3 | z-score, replicate 4 | phenotype, replicate 1 |
| --- | --- | --- | --- | --- | --- | --- |
| CG13743 (GeneID 35911) | DRSC05139 | 0.82 | -4.06 | -2.8 | – | – |
| CG13743 (GeneID 35911) | DRSC06414 | -0.35 | -1.12 | – | – | – |
| CG13743 (GeneID 35911) | DRSC22775 | 0.06 | -0.03 | – | – | – |
| CG12213 (GeneID 41447) | DRSC14478 | -2.78 | 0.14 | 0.23 | -1.83 | – |
| CG12213 (GeneID 41447) | DRSC22109 | -0.46 | 0.07 | – | – | – |
| ppk29 (GeneID 37844) | DRSC04205 | 0.16 | 0 | – | – | – |
| gwl (GeneID 45969) | DRSC16305 | 0.39 | 0.15 | – | – | – |
| CG34256 (GeneID 5740297) | DRSC09582 | 0.6 | 0.6 | – | – | – |
| CG8664 (GeneID 32719) | DRSC20116 | -0.04 | -0.78 | – | – | – |
| BckdhB (GeneID 3355069) | DRSC21183 | 0.17 | 0.19 | – | – | – |
| z (GeneID 31230) | DRSC18855 | -1.32 | -1.13 | – | – | – |
| Tsp74F (GeneID 39995) | DRSC10508 | -0.02 | 0.25 | – | – | – |
| Cyt-c-d (GeneID 34995) | DRSC03309 | 0.37 | 0.39 | – | – | – |
| CG42500 (GeneID 50032) | DRSC14822 | 0.39 | 0.79 | – | – | – |
| CG1835 (GeneID 33057) | DRSC20560 | 0.21 | 0.32 | – | – | – |
| CG32554 (GeneID 32767) | DRSC22713 | -1.02 | -0.3 | – | – | – |
| CG14464 (GeneID 3355132) | DRSC07760 | 0.14 | 0.21 | – | – | – |
| comm (GeneID 39717) | DRSC11336 | 0.53 | 0.32 | – | – | – |
| CG44325 (GeneID 31831) | DRSC18039 | -0.46 | -0.22 | – | – | – |
| CG44325 (GeneID 31831) | DRSC18423 | 0.03 | -0.81 | – | – | – |
| Gmap (GeneID 32483) | DRSC19988 | 0.26 | -0.28 | – | – | – |
| Gmap (GeneID 32483) | DRSC20057 | 0.11 | 0.22 | – | – | – |
| RpL22-like (GeneID 37684) | DRSC04582 | 0.04 | 0.34 | – | – | – |
| CG34195 (GeneID 37018) | DRSC06909 | 0.16 | 0.41 | – | – | – |
| CG13692 (GeneID 33216) | DRSC00361 | 0.37 | 0.36 | – | – | – |
| CG7335 (GeneID 40203) | DRSC10816 | 0.25 | 0.3 | – | – | – |
| Elo68alpha (GeneID 317841) | DRSC22725 | -0.21 | -0.09 | – | – | – |
| Tmtc3 (GeneID 37401) | DRSC04444 | 0.44 | 0.37 | – | – | – |
| CG32453 (GeneID 318036) | DRSC21673 | -0.59 | -0.22 | – | – | – |
| ng1 (GeneID 31300) | DRSC18802 | 0.03 | -0.04 | – | – | – |
| r (GeneID 32640) | DRSC19813 | -0.55 | -0.86 | – | – | – |
| r (GeneID 32640) | DRSC19814 | -0.53 | -0.75 | – | – | – |
| trh (GeneID 38065) | DRSC08355 | 0.45 | 0.38 | – | – | – |
| trh (GeneID 38065) | DRSC08739 | 0.32 | 0.24 | – | – | – |
| hgo (GeneID 34552) | DRSC03544 | 0.14 | 0.33 | – | – | – |
| CG12171 (GeneID 40690) | DRSC12200 | 0.24 | 0.35 | – | – | – |
| CG13983 (GeneID 33875) | DRSC02315 | 0.4 | 0.3 | – | – | – |
| CG1979 (GeneID 40837) | DRSC12495 | 0.41 | -0.09 | – | – | – |
| PGRP-SA (GeneID 32099) | DRSC19420 | 0.23 | 0.11 | – | – | – |
| RpL15 (GeneID 3354918) | DRSC20963 | -2.48 | -4.01 | – | – | reduced secretion |
| CG14120 (GeneID 39463) | DRSC10124 | 0.13 | 0.37 | – | – | – |
| Zn72D (GeneID 39764) | DRSC11318 | 0.08 | 0.04 | – | – | – |
| NetA (GeneID 32398) | DRSC20261 | 0.02 | 0.33 | – | – | – |
| RpS27 (GeneID 43039) | DRSC14244 | -1.79 | -2.12 | – | – | reduced secretion |
| Tango1 (GeneID 33930) | DRSC02127 | -1.62 | -2.63 | – | – | reduced secretion |
| Pkg21D (GeneID 33253) | DRSC00772 | 0.12 | 0.24 | – | – | – |
| CG42246 (GeneID 7354415) | DRSC17520 | -0.27 | 0.83 | – | – | – |
| Vps36 (GeneID 39523) | DRSC09785 | -1.38 | -0.79 | – | – | – |
| Cyp40 (GeneID 39121) | DRSC10980 | -0.2 | 0.1 | – | – | – |
| CG34176 (GeneID 5740391) | DRSC00435 | 0.1 | 0.16 | – | – | – |
| CG43610 (GeneID 12798580) | DRSC00949 | -0.98 | 0.01 | – | – | – |
| Cog8 (GeneID 34571) | DRSC02961 | -0.06 | 0.14 | – | – | – |
| GIIIspla2 (GeneID 31747) | DRSC18094 | 0.68 | 0.61 | – | – | – |
| ball (GeneID 43228) | DRSC14145 | 0.29 | -0.64 | – | – | – |
| CG15721 (GeneID 32247) | DRSC19688 | 0.35 | 0.11 | – | – | – |
| Nepl10 (GeneID 36366) | DRSC07212 | 0.68 | 0.33 | – | – | – |
| CG15764 (GeneID 31516) | DRSC18070 | 0.38 | 0.4 | – | – | – |
| CG13711 (GeneID 38576) | DRSC08320 | -0.48 | -0.52 | – | – | – |
| Tep2 (GeneID 34044) | DRSC02679 | 0.64 | 0.33 | – | – | – |
| Tep2 (GeneID 34044) | DRSC03451 | 0.38 | 0.38 | – | – | – |
| CG32219 (GeneID 317922) | DRSC09641 | 0.83 | 0.39 | – | – | – |
| LPCAT (GeneID 31899) | DRSC18157 | -1.03 | -0.53 | – | – | – |
| LPCAT (GeneID 31899) | DRSC18257 | 0.45 | 0.59 | – | – | – |
| Pxt (GeneID 42131) | DRSC17040 | -0.07 | 0 | – | – | – |
| CG11961 (GeneID 37221) | DRSC06099 | 0.38 | 0.13 | – | – | – |
| Vps37B (GeneID 40624) | DRSC12165 | -0.15 | 0.06 | – | – | – |
| CG14546 (GeneID 43142) | DRSC14890 | 0.12 | 0.1 | – | – | – |
| Liprin-gamma (GeneID 37552) | DRSC04093 | 0.82 | 0.63 | – | – | – |
| CG42818 (GeneID 10178877) | DRSC01963 | 0 | 0.27 | – | – | – |
| CG2246 (GeneID 43637) | DRSC15433 | 0.08 | 0.44 | – | – | – |
| CG43155 (GeneID 32092) | DRSC19642 | 0.38 | 0.03 | – | – | – |
| CG43155 (GeneID 32092) | DRSC19777 | 0.04 | 0.26 | – | – | – |
| CG10598 (GeneID 32713) | DRSC19358 | -0.24 | -0.96 | – | – | – |
| Cyp6a14 (GeneID 35835) | DRSC07376 | 0.24 | 0.29 | – | – | – |
| Spn75F (GeneID 317912) | DRSC09589 | -0.66 | 0.04 | – | – | – |
| CG15422 (GeneID 33615) | DRSC00436 | 0.1 | 0.25 | – | – | – |
| CG33310 (GeneID 2768910) | DRSC01897 | 0.42 | 0.1 | – | – | – |
| nol (GeneID 64867) | DRSC21425 | 0.23 | -0.23 | – | – | – |
| CG14357 (GeneID 41716) | DRSC14820 | 0.16 | -0.45 | – | – | – |
| roq (GeneID 39818) | DRSC10227 | 0.24 | 0.36 | – | – | – |
| sav (GeneID 252554) | DRSC14681 | 0.32 | 0.14 | – | – | – |
| sav (GeneID 252554) | DRSC14682 | 0.42 | 0.44 | – | – | – |

13 entries from above, sorted by “z-score, replicate 1”, highest first.
| target gene | dsRNA | z-score, replicate 1 | z-score, replicate 2 | z-score, replicate 3 | z-score, replicate 4 | phenotype, replicate 1 |
| --- | --- | --- | --- | --- | --- | --- |
| CG32219 (GeneID 317922) | DRSC09641 | 0.83 | 0.39 | – | – | – |
| Liprin-gamma (GeneID 37552) | DRSC04093 | 0.82 | 0.63 | – | – | – |
| Nepl10 (GeneID 36366) | DRSC07212 | 0.68 | 0.33 | – | – | – |
| Tep2 (GeneID 34044) | DRSC02679 | 0.64 | 0.33 | – | – | – |
| LPCAT (GeneID 31899) | DRSC18257 | 0.45 | 0.59 | – | – | – |
| CG15764 (GeneID 31516) | DRSC18070 | 0.38 | 0.4 | – | – | – |
| Tep2 (GeneID 34044) | DRSC03451 | 0.38 | 0.38 | – | – | – |
| CG11961 (GeneID 37221) | DRSC06099 | 0.38 | 0.13 | – | – | – |
| CG14546 (GeneID 43142) | DRSC14890 | 0.12 | 0.1 | – | – | – |
| Pxt (GeneID 42131) | DRSC17040 | -0.07 | 0 | – | – | – |
| Vps37B (GeneID 40624) | DRSC12165 | -0.15 | 0.06 | – | – | – |
| CG13711 (GeneID 38576) | DRSC08320 | -0.48 | -0.52 | – | – | – |
| LPCAT (GeneID 31899) | DRSC18157 | -1.03 | -0.53 | – | – | – |
